According to patent US4043993A (Parke, Davis & Company, priority 1976, dated 1977):

Assay: general procedure: Boc solid-phase peptide synthesis; chloromethylated polystyrene resin crosslinked with 1 to 2 percent divinylbenzene (Lab Systems, Inc.); dicyclohexylcarbodiimide
Details: whole synthesis, scale 8.8 mmol

Row | Substance | isolated mass
1 | N-Benzyloxycarbonyl-D-2-azetidinecarbonyl-N^im -benzyl-L-histidyl-O-benzyl-L-tyrosyl-O-benzyl-L-seryl-D-alanine methyl ester | 4.1 g
2 | N^α -Benzyloxycarbonyl-L-2-azetidinylcarbonyl-N^im -benzyl-L-histidyl-O-benzyl-L-tyrosyl-O-benzyl-L-seryl-D-alanine methyl ester | 4.1 g
